Test results reported in PMC9491610.
Residue numbers refer to the chain shown, from its start. Results are given in words; binding and its absence hold for the method and conditions named. In cells and extracts the contact can be indirect. Some results given as binding are weak or reduced against the parent protein; the word gives no strength.

Amino acid sequences for entries named in this document (tags omitted). A change or cut given only in a name is not applied to a line headed by its entry.
UniProt P09733: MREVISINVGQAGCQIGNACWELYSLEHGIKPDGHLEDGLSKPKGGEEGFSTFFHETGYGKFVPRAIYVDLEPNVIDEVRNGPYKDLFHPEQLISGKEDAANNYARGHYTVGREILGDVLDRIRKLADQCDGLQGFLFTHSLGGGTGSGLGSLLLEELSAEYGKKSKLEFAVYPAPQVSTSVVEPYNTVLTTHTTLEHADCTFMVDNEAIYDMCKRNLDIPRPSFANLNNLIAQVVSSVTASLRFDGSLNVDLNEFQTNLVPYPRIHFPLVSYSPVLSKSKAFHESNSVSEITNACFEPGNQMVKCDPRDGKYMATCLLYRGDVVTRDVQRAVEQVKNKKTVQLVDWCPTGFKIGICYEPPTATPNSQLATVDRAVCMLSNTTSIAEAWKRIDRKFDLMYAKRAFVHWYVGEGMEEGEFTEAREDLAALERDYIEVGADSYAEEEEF

What was measured:
Test in all cases: co-IP; Stu2-HA precipitated with anti-HA magnetic beads from 67 mg cryo-milled yeast extract in PEM buffer (80 mM PIPES, 1 mM EGTA, 1 mM MgCl2, pH 6.8); precipitate blotted with anti α-tubulin (anti-Tub1) as surrogate for αβ-tubulin
[1] = biological target: T1, Stu2-K252,469,870Q-3xHA (S. cerevisiae) (UniProt P46675)
T1 sequence: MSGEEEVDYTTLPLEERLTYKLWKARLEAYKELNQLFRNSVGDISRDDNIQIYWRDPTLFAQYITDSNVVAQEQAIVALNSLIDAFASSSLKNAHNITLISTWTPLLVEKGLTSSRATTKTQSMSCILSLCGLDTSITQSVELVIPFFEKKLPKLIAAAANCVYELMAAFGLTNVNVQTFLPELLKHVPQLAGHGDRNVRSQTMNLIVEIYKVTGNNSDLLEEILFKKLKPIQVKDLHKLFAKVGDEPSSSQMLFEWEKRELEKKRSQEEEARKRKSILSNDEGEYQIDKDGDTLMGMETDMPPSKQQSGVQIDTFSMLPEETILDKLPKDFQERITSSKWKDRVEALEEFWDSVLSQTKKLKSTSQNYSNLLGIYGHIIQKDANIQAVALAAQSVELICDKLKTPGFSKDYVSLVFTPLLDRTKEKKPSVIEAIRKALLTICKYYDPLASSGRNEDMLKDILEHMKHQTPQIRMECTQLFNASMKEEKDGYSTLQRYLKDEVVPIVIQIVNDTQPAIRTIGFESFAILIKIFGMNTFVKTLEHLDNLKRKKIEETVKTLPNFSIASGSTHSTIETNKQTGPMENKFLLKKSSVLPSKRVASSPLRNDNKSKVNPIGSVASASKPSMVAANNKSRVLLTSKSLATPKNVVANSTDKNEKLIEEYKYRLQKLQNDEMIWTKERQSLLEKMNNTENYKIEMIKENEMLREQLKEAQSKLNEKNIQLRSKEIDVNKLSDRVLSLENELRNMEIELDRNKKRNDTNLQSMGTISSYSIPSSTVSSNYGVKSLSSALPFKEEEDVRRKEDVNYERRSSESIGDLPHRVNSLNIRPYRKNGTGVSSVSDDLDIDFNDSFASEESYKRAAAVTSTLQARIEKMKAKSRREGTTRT

[2] = biological target: T2, Stu2-K252,469,870R-3xHA (S. cerevisiae) (UniProt P46675)
T2 sequence: T1 sequence with Q252R, Q469R, Q870R

[3] = biological target: T3, Stu2-K252,469R-3xHA (S. cerevisiae) (UniProt P46675)
T3 sequence: T1 sequence with Q252R, Q469R, Q870K

Measured: binding

αβ-tubulin heterodimer (from UniProt P09733 1-447; P02557 1-457) (complex)
binds: all assays above
